Data as given in PubChem BioAssay AID1259254 (NCATS, 2017).
This is an unselected part of about 59,000 reagents tested. About 1,550 of all reagents (2.6%) were called active. 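G2 share is only a proxy for re-replication; each gene was hit by three separate siRNAs, and active genes were retested.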 Raw values are not corrected between plates. The numbers tell different reagents against one gene apart. Not given: the amount of reagent.

- Assay: 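Genome-wide screen for genes that prevent DNA re-replication in cancer cells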 (primary screen)
- Cells: human HCT116 colorectal cancer cells
- Reagents: single siRNA against human genes
- Timing: 3 days
- Read-out: 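Imaged Hoechst DNA stain sorts each cell into a cycle phase by DNA amount; per plate, G2 fraction set to 0% for non-targeting and 100% for GMNN siRNA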
- Scale: G2 robust z-score and G2 cells, % of GMNN control: higher = more G2 cells, more excess DNA replication; raw share of cells in G2: higher = larger share of cells with G2 DNA content
- Active means: 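An siRNA counts as active if its G2 robust z-score lies at least 5 MADs above the screen median; here such calls match roughly 38% of GMNN control or more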

| gene symbol | siRNA no. | G2 robust z-score | G2 cells, % of GMNN control | raw share of cells in G2 (%) | Outcome |
| --- | --- | --- | --- | --- | --- |
| CLDN8 (GeneID 9073) | 1 | -0.782 | -2.54 | 2.68 | inactive |
| CLDN8 (GeneID 9073) | 2 | -1.02 | -4.24 | 4.1 | inactive |
| CLDN8 (GeneID 9073) | 3 | 2.12 | 17.9 | 10.8 | inactive |
| KCTD15 (GeneID 79047) | 1 | 0.663 | 7.63 | 5.49 | inactive |
| KCTD15 (GeneID 79047) | 2 | 3.5 | 27.6 | 18.4 | inactive |
| KCTD15 (GeneID 79047) | 3 | 0.646 | 7.51 | 5.99 | inactive |
| AP3S1 (GeneID 1176) | 1 | 0.241 | 4.66 | 6.63 | inactive |
| AP3S1 (GeneID 1176) | 2 | 1.25 | 11.8 | 9.3 | inactive |
| AP3S1 (GeneID 1176) | 3 | -0.00886 | 2.91 | 5.1 | inactive |
| EVA1A (GeneID 84141) | 1 | -0.982 | -3.94 | 2.8 | inactive |
| EVA1A (GeneID 84141) | 2 | 0.693 | 7.84 | 5.78 | inactive |
| EVA1A (GeneID 84141) | 3 | 0.118 | 3.8 | 3.56 | inactive |
| KLHDC8A (GeneID 55220) | 1 | -0.799 | -2.65 | 3.5 | inactive |
| KLHDC8A (GeneID 55220) | 2 | 0.2 | 4.38 | 5.95 | inactive |
| KLHDC8A (GeneID 55220) | 3 | -0.176 | 1.73 | 3.69 | inactive |
| DNAH9 (GeneID 1770) | 1 | 1.14 | 11 | 9.01 | inactive |
| DNAH9 (GeneID 1770) | 2 | -0.985 | -3.97 | 2.73 | inactive |
| DNAH9 (GeneID 1770) | 3 | 2.66 | 21.7 | 12.7 | inactive |
| TMED10 (GeneID 10972) | 1 | 0.634 | 7.43 | 8.92 | inactive |
| TMED10 (GeneID 10972) | 2 | 1.17 | 11.2 | 10.9 | inactive |
| TMED10 (GeneID 10972) | 3 | 1.41 | 12.9 | 8.01 | inactive |
| NDUFB4P12 (GeneID 402175) | 1 | -0.631 | -1.47 | 2.93 | inactive |
| NDUFB4P12 (GeneID 402175) | 2 | -0.0136 | 2.87 | 5.98 | inactive |
| NDUFB4P12 (GeneID 402175) | 3 | 0.201 | 4.38 | 5.4 | inactive |
| DBNDD2 (GeneID 55861) | 1 | 0.0898 | 3.6 | 4.28 | inactive |
| DBNDD2 (GeneID 55861) | 2 | 4.68 | 35.9 | 18.3 | inactive |
| DBNDD2 (GeneID 55861) | 3 | 5.82 | 43.9 | 22.3 | active |
| IPO13 (GeneID 9670) | 1 | 1.4 | 12.8 | 10.1 | inactive |
| IPO13 (GeneID 9670) | 2 | -0.741 | -2.24 | 3.84 | inactive |
| IPO13 (GeneID 9670) | 3 | -0.981 | -3.94 | 1.86 | inactive |

The list goes on, starting with the last 2 of the part before.
| gene symbol | siRNA no. | G2 robust z-score | G2 cells, % of GMNN control | raw share of cells in G2 (%) | Outcome |
| --- | --- | --- | --- | --- | --- |
| IPO13 (GeneID 9670) | 2 | -0.741 | -2.24 | 3.84 | inactive |
| IPO13 (GeneID 9670) | 3 | -0.981 | -3.94 | 1.86 | inactive |
| GEMIN8 (GeneID 54960) | 1 | 1.44 | 13.1 | 8.3 | inactive |
| GEMIN8 (GeneID 54960) | 2 | 2.4 | 19.9 | 12.6 | inactive |
| GEMIN8 (GeneID 54960) | 3 | 4.7 | 36 | 15.1 | inactive |
| LRRC61 (GeneID 65999) | 1 | 0.963 | 9.74 | 8.82 | inactive |
| LRRC61 (GeneID 65999) | 2 | 0.541 | 6.78 | 7.65 | inactive |
| LRRC61 (GeneID 65999) | 3 | 1.21 | 11.5 | 5.73 | inactive |
| TMEM14EP (GeneID 645843) | 1 | -0.866 | -3.13 | 2.05 | inactive |
| TMEM14EP (GeneID 645843) | 2 | 0.0575 | 3.37 | 5.05 | inactive |
| TMEM14EP (GeneID 645843) | 3 | -0.751 | -2.32 | 2.36 | inactive |
| DBT (GeneID 1629) | 1 | 0.626 | 7.38 | 7.59 | inactive |
| DBT (GeneID 1629) | 2 | -0.302 | 0.843 | 5.3 | inactive |
| DBT (GeneID 1629) | 3 | -0.64 | -1.54 | 3.57 | inactive |
| SEPTIN6 (GeneID 23157) | 1 | -0.327 | 0.663 | 6.64 | inactive |
| SEPTIN6 (GeneID 23157) | 2 | 1.06 | 10.4 | 7.44 | inactive |
| SEPTIN6 (GeneID 23157) | 3 | 0.297 | 5.06 | 5.85 | inactive |
| SYT6 (GeneID 148281) | 1 | -0.258 | 1.15 | 3.49 | inactive |
| SYT6 (GeneID 148281) | 2 | 0.217 | 4.5 | 4.73 | inactive |
| SYT6 (GeneID 148281) | 3 | -0.659 | -1.67 | 2.94 | inactive |
| PIGYP1 (GeneID 442064) | 1 | 0.0491 | 3.31 | 4.25 | inactive |
| PIGYP1 (GeneID 442064) | 2 | 0.772 | 8.4 | 6.87 | inactive |
| PIGYP1 (GeneID 442064) | 3 | -0.389 | 0.233 | 3.5 | inactive |
| RALB (GeneID 5899) | 1 | 1.33 | 12.3 | 9.21 | inactive |
| RALB (GeneID 5899) | 2 | -1.19 | -5.39 | 2.62 | inactive |
| RALB (GeneID 5899) | 3 | -0.798 | -2.65 | 3.26 | inactive |
| ANXA8L1 (GeneID 728113) | 1 | 0.33 | 5.29 | 5.96 | inactive |
| ANXA8L1 (GeneID 728113) | 2 | -0.973 | -3.88 | 3.4 | inactive |
| ANXA8L1 (GeneID 728113) | 3 | 1.79 | 15.6 | 10.6 | inactive |
| ANXA8L1 (GeneID 728113) | 4 | -0.323 | 0.693 | 3.8 | inactive |
| ANXA8L1 (GeneID 728113) | 5 | -0.388 | 0.239 | 2.96 | inactive |
| ANXA8L1 (GeneID 728113) | 6 | -0.908 | -3.42 | 2.31 | inactive |
| PSAP (GeneID 5660) | 1 | -1.01 | -4.11 | 2.78 | inactive |
| PSAP (GeneID 5660) | 2 | -0.469 | -0.332 | 4.55 | inactive |
| PSAP (GeneID 5660) | 3 | 0.793 | 8.55 | 7.92 | inactive |
| ZBTB9 (GeneID 221504) | 1 | 1.03 | 10.2 | 7.27 | inactive |
| ZBTB9 (GeneID 221504) | 2 | -0.156 | 1.87 | 3.77 | inactive |
| ZBTB9 (GeneID 221504) | 3 | -0.26 | 1.14 | 3.56 | inactive |
| ALDOC (GeneID 230) | 1 | -0.0473 | 2.63 | 6.01 | inactive |
| ALDOC (GeneID 230) | 2 | 3.53 | 27.8 | 14.3 | inactive |
| ALDOC (GeneID 230) | 3 | 1.59 | 14.2 | 9.55 | inactive |
